# Assay results: patent US12384806B2, “Isopaucifloral F phosphate compound and pharmaceutical use thereof” (FUDAN UNIVERSITY, priority 2020, dated 2025)
# Some results were stated once for a whole list of compounds, not compound by compound. At least one compound was matched to its structure with a doubt left.
# Tested on: Kunming mice
structure (smiles),measurement,setting,value
"O=C1c2cc(O)cc(O)c2[C@@H](c2ccc(O)cc2)[C@@H]1c1cc(O)cc(O)c1 [Isopaucifloral F, isopaucifloral F]",acute toxicity LD50,"Kunming mice, single dose via intraperitoneal injection, observed 14 days",> 150 mg/kg
same,therapeutic index TI,toxic dose (150 mg)/effective dose (10 μg),> 15000
